Experimental data published in patent US11643439B2 (SHAANXI MICOT TECHNOLOGY LIMITED COMPANY, priority 2015, dated 2023).
* marks the point of attachment. Fmoc = O=C(OCC1c2ccccc2-c2ccccc21)*

Test: general procedure: Fmoc solid-phase peptide synthesis; 2-Cl-Trt resin; DIC/HOBt
Details: whole synthesis
[1] = scale of the general procedure 10 mmol

## Fmoc-GGGG-OH
  crude mass: 7.2 g
[1]
  crude purity (method not given): 95.6%
  crude yield: 96%
